Data on one sequence can be found in paper PMC4431734, “Characterization of a Single-Stranded DNA-Binding-Like Protein from Nanoarchaeum equitans—A Nucleic Acid Binding Protein with Broad Substrate Specificity”.

For this data set, the target named is T1, TaqSSB (UniProt Q9KH06).
T1 sequence (looked up, limits assumed): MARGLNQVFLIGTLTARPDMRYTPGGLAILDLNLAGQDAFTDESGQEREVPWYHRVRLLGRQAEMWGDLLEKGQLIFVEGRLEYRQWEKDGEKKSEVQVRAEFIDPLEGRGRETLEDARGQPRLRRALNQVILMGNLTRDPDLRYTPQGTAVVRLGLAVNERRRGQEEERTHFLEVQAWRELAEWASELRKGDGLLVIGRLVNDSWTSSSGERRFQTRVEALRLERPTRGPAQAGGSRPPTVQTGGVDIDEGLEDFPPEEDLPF
Nature of the data set: EMSA. Conditions: activity half-life 10 min at 85 C, 0 min at 100 C, EMSA: 20 mM Tris-HCl pH 7.5, 100 mM NaCl, 1 mM EDTA, 25 C, recombinant protein, label: 5' …, single-stranded DNA. (In EMSA bound probe runs differently from free probe, usually more slowly.)

Construct, isoform or probe ends are uncertain for at least one entry. At least one verdict was read from the data and is not stated in words by the source. Tags and fusion partners may be left off the protein sequences shown.

As to “TTTTTTTTTTTTTTTTTTTTTTTTTTTTTTTTTTT [(dT)35]”, the binding result is listed as “binds”.
